According to PMC11432932:
No constants are given. Whether binding was seen depends on the method and setting. A result given as binding can be weak or reduced; the word gives no strength. Tags and fused reporters may be left off the sequences shown.

Target: EXO70E1 (in pGBKT7) (Arabidopsis) (UniProt Q9LIA2)
Test: two-hybrid; bait in pGBKT7, prey in pGADT7, Gold Yeast Y2H; growth on SD/(-Trp-Leu-His-Ade) (QDO) medium for 3 days

binding: binds
B1: AD-BOI (protein, UniProt O81851 1-304)
chain: MAVQAHHMNIFSQFISPNRDCVKFQENMNHGEFEFTGGEVPLITGESFAVEPLAAKANFNKAESGLSYNFTVPPLSTKRQRDFQFSDSNAPVKRRSVAFDSSSPSLINVELVSQIQNQQQSEIDRFVAQQTEKLRIEIEARQQTQTRMLASAVQNVIAKKLKEKDDEIVRIRNLNWVLQERVKSLYVENQIWRDIAQTNEANANTLRTNLDQVLAQLETFPTASAVVEDDAESSCGSCCGDGGGEAVTAVGGGCKRCGEREASVLVLPCRHLCLCTVCGGSALLRTCPVCDMVMNASVHVNMSS
